Earlier results in patent US6780984B2, “Method for prognosing cancer and the proteins involved” (Northwestern University, priority 2000, dated 2004).

Conditions: cited from earlier work

B1: calreticulin: multi-functional Ca++ binding protein of the endoplasmic reticulum, human SEQ ID NO:36; overexpressed from pcDNA3.1/crt (protein)
chain: MLLSVPLLLGLLGLAVAEPAVYFKEQFLDGDGWTSRWIESKHKSDFGKFVLSSGKFYGDEEKDKGLQTSQDARFYALSASFEPFSNKGQTLVVQFTVKHEQNIDCGGGYVKLFPNSLDQTDMHGDSEYNIMFGPDICGPGTKKVHVIFNYKGKNVLINKDIRCKDDEFTHLYTLIVRPDNTYEVKIDNSQVESGSLEDDWDFLPPKKIKDPDASKPEDWDERAKIDDPTDSKPEDWDKPEHIPDPDAKKPEDWDEEMDGEWEPPVIQNPEYKGEWKPRQIDNPDYKGTWIHPEIDNPEYSPDPSIYAYDNFGVLGLDLWQVKSGTIFDNFLITNDEAYAEEFGNETWGVTKAAEKQMKDKQDEEQRLKEEEEDKKRKEEEEAEDKEDDEDKDEDEEDEEDKEEDEEEDVPGQAKDEL
C-Terminal Domain
  Ca++ binding capacity, high capacity sites: approximately 25 mols Ca^((+))((+))/mol protein
Repeat A of the Proline-rich Domain
  Ca++ binding capacity, low capacity site: 1 mol Ca^((+))((+))/mol of protein
